For this series, the system named is lipopolysaccharide (LPS) induced fever in rats. Nature of the series: Lipopolysaccharide (LPS) induced fever in SD rats. Format: in vivo, rat. The note with it: before modeling. The protocol: Experimental example 2 The pharmacodynamic test of protein BD-4 (Example 4 protein) on lipopolysaccharide (LPS) induced fever in SD rats.
Experiment Grouping: • Model group: lipopolysaccharide fever model; • Positive control group: Aspirin 300 mg/kg group, • Protein BD-4, 10 mg/kg group, 50 mg/kg group. Method: the method of intraperitoneal injection of Lipopolysaccharide to create fever model in rats.
Preparation of experimental animals: After the experimental animals adapt to the experimental environment (temperature 22° C.±2° C., relative humidity 50%±2%) for 1 day. […] Insert the rat rectum 2 cm (can be marked at 2 cm to ensure that the depth of each insertion is consistent), and record the body temperature after the reading is stable.
Intraperitoneal injection of lipopolysaccharide to replicate rat fever model: The body temperature of the rats was measured before modeling. […] After oral administration of aspirin and different doses of protein BD-4, lipopolysaccharide (20 μg/kg, 2 ml/kg) was injected intraperitoneally immediately, and the normal control group was injected intraperitoneally with an equal volume of normal saline. the rats' body temperature was monitored after 2 hours for a total of 8 hours. […]

B1: BD-4: recombinant keratin, amino acid sequence SEQ ID NO: 1, expressed in E. coli; the protein of Example 4 was tested (protein, listed as Bos taurus)
chain: MSYSCCLPNLSFRSSCSSRPCVPSSCCGTTLPGACNIPANVGSCNWFCEGSFNGSEKETMQFLNDRLASYLEKVRQLERDNAELESRILERSQQQEPLVCPNYQSYFRTIEELQQKILCSKSENARLVVQIDNAKLASDDFRTKYETEVSLRQLVEADLNGLRRILDELTLCKSDLEARVESLKEELICLKQNHEQEVNTLRSQLGDRLNVEVDAAPTVDLNRVLNETRAQYEALVETNRRDVEEWYIRQTEELNKQVVSSSEQLQSYQAEIIELRRTVNALEVELQAQHNLRDSLENTLTETEARYSCQLAQVQGLIGNVESQLAEIRSDLERQNQEYQVLLDVRARLECEINTYRGLLDSEDCKLPCNPCATTNACERPCISNPCVSRARCGPCNTFVH
Take B1: the Basal body temperature by setting is: (BD-4 10 mg/kg group) 36.9 ± 0.1 °C; (BD-4 50 mg/kg group) 36.8 ± 0.1 °C.

Values taken from patent US12098176B2, “Keratin BD-4, preparation method, and pharmaceutical composition and use thereof” (Institute of Materia Medica, Chinese Academy of Medical …, priority 2019, dated 2024).
